Reference: US5059679A, “Method of selectively sulfating peptides” (Shin-Etsu CHemical Co., Ltd., priority 1988, dated 1991)
Not every detail of the peptide structures is certain; ends, links or a residue may be inferred. Residues, ends and D or L forms follow the SMILES beside them.

Tested on: protein release from pancreas
Assay: Bioassay in anesthetized dogs: protein release from pancreas (Lowry method)
Type: in vivo, mongrel dogs
Settings: aforementioned assay with dogs (pancreas blood flow and protein release, FIG. 6)
Experimental: The synthetic hCCK-33 was concurrently subjected to the bioassay with synthetic hCCK-8 to determine the activity. The bioassay was carried out by measuring the blood flow in the pancreas capillary vessel and the protein release from pancreas using a group of four mongrel dogs anesthesized with pentobarbital. The blood flow in the pancreas capillary vessel was measured using a laser-Doppler perfusion monitor and the protein concentration in the pancreas was determined according to the method of O. H. Lowry, N. J. Rosebrough, A. L. Farr and R. J. Randall, J. Biol. Chem. 193, 265 (1951). Bolus injections of 1.0, 3.125, 6.25, 12.5, 25, 50, 100 and 200 picomoles per kg body weight of the synthetic hCCK-33 and CCK-8 were given through a femoral vein catheter each at an interval of 60 minutes. […] The increasing effect could be noted even with the lowest dose of 3.125 picomoles/kg and the highest effect was obtained with the dose of 200 picomoles/kg. The activity of the synthetic hCCK-33 was 92% of that of the synthetic CCK-8 on the molar basis in respect of the effects on the blood flow in the pancreas capillary vessel and the protein release from pancreas. […]

CC[C@H](C)[C@H](NC(=O)[C@H](CCCNC(=N)N)NC(=O)[C@H](Cc1c[nH]cn1)NC(=O)[C@H](CO)NC(=O)[C@@H]1CCCN1C(=O)[C@H](CC(=O)O)NC(=O)[C@H](CC(C)C)NC(=O)[C@H](CC(N)=O)NC(=O)[C@H](CCC(N)=O)NC(=O)[C@H](CC(C)C)NC(=O)[C@H](CC(N)=O)NC(=O)[C@H](CCCCN)NC(=O)[C@@H](NC(=O)[C@@H](NC(=O)[C@H](CO)NC(=O)[C@H](CCSC)NC(=O)[C@H](CCCNC(=N)N)NC(=O)CNC(=O)[C@H](CO)NC(=O)[C@@H]1CCCN1C(=O)[C@H](C)NC(=O)[C@@H](N)CCCCN)[C@@H](C)CC)C(C)C)C(=O)N[C@@H](CO)C(=O)N[C@@H](CC(=O)O)C(=O)N[C@@H](CCCNC(=N)N)C(=O)N[C@@H](CC(=O)O)C(=O)N[C@@H](Cc1ccc(O)cc1)C(=O)N[C@@H](CCSC)C(=O)NCC(=O)N[C@@H](Cc1c[nH]c2ccccc12)C(=O)N[C@@H](CCSC)C(=O)N[C@@H](CC(=O)O)C(=O)N[C@@H](Cc1ccccc1)C(N)=O [unsulfated hCCK-33, H-Lys-Ala-Pro-Ser-Gly-Arg-Met-Ser-Ile-Val-Lys-Asn-Leu-Gln-Asn-Leu-Asp-Pro- Ser-His-Arg-Ile-Ser-Asp-Arg-Asp-Tyr-Met-Gly-Trp-Met-Asp-Phe-NH2] (H-KAPSGRMSIVKNLQNLDPSHRISDRDYMGWMDF-NH2)
ratio of activity to the activity of CCK-8, taken as unity on the molar basis: 0.074
